Values from PubChem BioAssay AID1224827 (NIAID, 2016)
Assay: 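Retest primary hits on a TNF reporter with six siRNAs per gene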 (follow-up of hits). Cell system: RAW264.7 G9 mouse macrophage reporter clone. Knock-down reagent: single siRNA against mouse genes, 100 nM siRNA. Duration: siRNA for 2 days, then LPS about 16 h. Challenge: bacterial lipopolysaccharide (LPS), 10 ng/ml, cells fixed after overnight (about 16 h) stimulation. Measurement: 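Imaged nuclear TNF reporter intensity, background removed, scaled per plate and to non-targeting control wells, as z-scores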. Direction: TNF reporter z-score, mean: higher = stronger Tnf promoter reporter signal. Call rule: 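Active siRNA: replicate-mean z-score of 2 or more, or -2 or less; no calls for control wells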.
This is an unselected part of about 3,800 reagents tested. In the full data, about 2,200 (57%) are marked active. 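Active means a strong reporter change in either direction; calls are per siRNA, not per gene; qiagen siRNAs gave weaker effects.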 Reagents against one gene are numbered here. Further read-outs or replicates are left out here.

Prickle3 (prickle planar cell polarity protein 3) #1
- TNF reporter z-score, mean: -2.3
- Call: active

Prickle3 (prickle planar cell polarity protein 3) #2
- TNF reporter z-score, mean: -3.43
- Call: active

Prickle3 (prickle planar cell polarity protein 3) #3
- TNF reporter z-score, mean: -5.41
- Call: active

Prickle3 (prickle planar cell polarity protein 3) #4
- TNF reporter z-score, mean: 4.3
- Call: active

Prickle3 (prickle planar cell polarity protein 3) #5
- TNF reporter z-score, mean: 3.53
- Call: active

Prickle3 (prickle planar cell polarity protein 3) #6
- TNF reporter z-score, mean: 1.97
- Call: inactive

Ncor2 (nuclear receptor co-repressor 2) #1
- TNF reporter z-score, mean: -2.78
- Call: active

Ncor2 (nuclear receptor co-repressor 2) #2
- TNF reporter z-score, mean: -4.13
- Call: active

Ncor2 (nuclear receptor co-repressor 2) #3
- TNF reporter z-score, mean: -5.99
- Call: active

Ncor2 (nuclear receptor co-repressor 2) #4
- TNF reporter z-score, mean: 0.566
- Call: inactive

Ncor2 (nuclear receptor co-repressor 2) #5
- TNF reporter z-score, mean: -1.31
- Call: inactive

Ncor2 (nuclear receptor co-repressor 2) #6
- TNF reporter z-score, mean: -1.84
- Call: inactive

Targets above whose gene name starts with N or n:
Ncor2 (nuclear receptor co-repressor 2) #1
- TNF reporter z-score, mean: -2.78
- Call: active

Ncor2 (nuclear receptor co-repressor 2) #2
- TNF reporter z-score, mean: -4.13
- Call: active

Ncor2 (nuclear receptor co-repressor 2) #3
- TNF reporter z-score, mean: -5.99
- Call: active

Ncor2 (nuclear receptor co-repressor 2) #4
- TNF reporter z-score, mean: 0.566
- Call: inactive

Ncor2 (nuclear receptor co-repressor 2) #5
- TNF reporter z-score, mean: -1.31
- Call: inactive

Ncor2 (nuclear receptor co-repressor 2) #6
- TNF reporter z-score, mean: -1.84
- Call: inactive

Additional records follow.
Ptpn13 (protein tyrosine phosphatase, non-receptor type 13) #1
- TNF reporter z-score, mean: 2.85
- Call: active

Ptpn13 (protein tyrosine phosphatase, non-receptor type 13) #2
- TNF reporter z-score, mean: -3.01
- Call: active

Ptpn13 (protein tyrosine phosphatase, non-receptor type 13) #3
- TNF reporter z-score, mean: -3.39
- Call: active

Ptpn13 (protein tyrosine phosphatase, non-receptor type 13) #4
- TNF reporter z-score, mean: 1.88
- Call: inactive

Ptpn13 (protein tyrosine phosphatase, non-receptor type 13) #5
- TNF reporter z-score, mean: -0.904
- Call: inactive

Ptpn13 (protein tyrosine phosphatase, non-receptor type 13) #6
- TNF reporter z-score, mean: -3.17
- Call: active

Hmox2 (heme oxygenase 2) #1
- TNF reporter z-score, mean: 0.124
- Call: inactive

Hmox2 (heme oxygenase 2) #2
- TNF reporter z-score, mean: -0.216
- Call: inactive

Hmox2 (heme oxygenase 2) #3
- TNF reporter z-score, mean: -1.63
- Call: inactive

Hmox2 (heme oxygenase 2) #4
- TNF reporter z-score, mean: 3.82
- Call: active

Hmox2 (heme oxygenase 2) #5
- TNF reporter z-score, mean: -0.616
- Call: inactive

Hmox2 (heme oxygenase 2) #6
- TNF reporter z-score, mean: -1.98
- Call: inactive
